From paper PMC12397258

Experiments:
HA-TRIM2 = target: T1, HA-TRIM2 (UniProt Q9C040); experiment: co-IP; HEK293T cells co-transfected with the indicated plasmids (PEI), 48 h, 10 uM MG132 for 4 h before lysis; lysis buffer 0.5% lubrol-px, 50 mM KCl, 2 mM CaCl2, 20% glycerol, 50 mM Tris-HCl, 3 mM sodium vanadate, 2 mM NaF; 1 ug antibody with Protein A/G agarose at 4 C overnight; western blot
T1 sequence: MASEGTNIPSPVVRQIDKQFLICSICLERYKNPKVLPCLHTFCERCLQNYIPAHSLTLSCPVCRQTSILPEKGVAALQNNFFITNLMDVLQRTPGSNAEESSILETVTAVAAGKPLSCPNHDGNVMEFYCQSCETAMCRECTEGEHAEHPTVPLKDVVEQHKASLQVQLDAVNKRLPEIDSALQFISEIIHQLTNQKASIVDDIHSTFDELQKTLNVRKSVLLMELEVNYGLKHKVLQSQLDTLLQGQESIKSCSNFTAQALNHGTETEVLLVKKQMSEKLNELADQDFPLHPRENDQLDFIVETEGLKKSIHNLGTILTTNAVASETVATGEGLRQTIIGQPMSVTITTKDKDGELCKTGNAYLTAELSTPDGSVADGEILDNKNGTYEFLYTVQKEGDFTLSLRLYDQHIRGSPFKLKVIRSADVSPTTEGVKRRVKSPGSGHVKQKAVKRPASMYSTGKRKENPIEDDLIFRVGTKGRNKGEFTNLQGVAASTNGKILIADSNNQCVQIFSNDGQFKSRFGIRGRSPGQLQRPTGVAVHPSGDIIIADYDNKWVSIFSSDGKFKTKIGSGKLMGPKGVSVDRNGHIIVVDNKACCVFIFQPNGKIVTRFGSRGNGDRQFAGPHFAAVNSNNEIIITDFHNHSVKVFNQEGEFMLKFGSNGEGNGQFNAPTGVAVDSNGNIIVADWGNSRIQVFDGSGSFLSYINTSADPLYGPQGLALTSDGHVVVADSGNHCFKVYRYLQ

GST-TRIM2 = target: T2, GST-TRIM2 (UniProt Q9C040); experiment: pull-down; purified GST-TRIM2 (or GST) with glutathione Sepharose 4B incubated with lysates of transfected HEK293T cells at 4 C overnight; western blot with anti-Flag antibody; only the target purified
T2 sequence: T1 sequence

Q: What does the source list for Flag-BNIP3?
A: binding (HA-TRIM2): binds; binding (GST-TRIM2): binds

Results are given in words; binding and its absence hold for the method and conditions named. Binding seen in cells or lysates may run through a third protein. A result given as binding can be weak or reduced; the word gives no strength. Sequences can lack the tags named with a protein.
